Measurements taken from paper PMC11470042.
These are yes or no findings as the source states them, for the method shown. In cells and extracts the contact can be indirect. Some entries that bind do so weakly or less than the wild type.

Sequences of proteins named here, by UniProt entry; tags and fusion partners are left off.
UniProt P09012: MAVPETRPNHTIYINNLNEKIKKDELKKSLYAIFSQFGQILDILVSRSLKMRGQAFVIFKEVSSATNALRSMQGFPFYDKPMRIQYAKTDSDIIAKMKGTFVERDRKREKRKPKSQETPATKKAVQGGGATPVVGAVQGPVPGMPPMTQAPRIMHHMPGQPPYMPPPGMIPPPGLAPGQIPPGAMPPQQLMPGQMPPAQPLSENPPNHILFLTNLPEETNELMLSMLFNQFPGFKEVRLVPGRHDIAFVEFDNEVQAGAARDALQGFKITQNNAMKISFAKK
UniProt Q9Y297: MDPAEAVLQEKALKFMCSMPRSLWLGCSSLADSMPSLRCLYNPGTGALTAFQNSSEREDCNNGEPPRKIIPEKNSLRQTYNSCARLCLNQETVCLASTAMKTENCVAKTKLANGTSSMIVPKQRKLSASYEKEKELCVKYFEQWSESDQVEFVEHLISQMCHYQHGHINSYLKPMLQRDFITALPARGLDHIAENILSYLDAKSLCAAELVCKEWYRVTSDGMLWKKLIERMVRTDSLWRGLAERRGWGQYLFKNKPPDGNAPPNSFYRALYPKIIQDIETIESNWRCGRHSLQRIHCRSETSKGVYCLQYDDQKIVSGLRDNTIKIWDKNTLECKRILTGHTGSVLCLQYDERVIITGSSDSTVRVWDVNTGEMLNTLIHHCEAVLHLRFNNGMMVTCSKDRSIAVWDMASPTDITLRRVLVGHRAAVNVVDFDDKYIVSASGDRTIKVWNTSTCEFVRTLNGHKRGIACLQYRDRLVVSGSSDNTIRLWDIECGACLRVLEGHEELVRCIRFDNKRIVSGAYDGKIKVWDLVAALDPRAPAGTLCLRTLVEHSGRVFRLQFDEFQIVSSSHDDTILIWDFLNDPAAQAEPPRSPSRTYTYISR
UniProt Q9UKB1: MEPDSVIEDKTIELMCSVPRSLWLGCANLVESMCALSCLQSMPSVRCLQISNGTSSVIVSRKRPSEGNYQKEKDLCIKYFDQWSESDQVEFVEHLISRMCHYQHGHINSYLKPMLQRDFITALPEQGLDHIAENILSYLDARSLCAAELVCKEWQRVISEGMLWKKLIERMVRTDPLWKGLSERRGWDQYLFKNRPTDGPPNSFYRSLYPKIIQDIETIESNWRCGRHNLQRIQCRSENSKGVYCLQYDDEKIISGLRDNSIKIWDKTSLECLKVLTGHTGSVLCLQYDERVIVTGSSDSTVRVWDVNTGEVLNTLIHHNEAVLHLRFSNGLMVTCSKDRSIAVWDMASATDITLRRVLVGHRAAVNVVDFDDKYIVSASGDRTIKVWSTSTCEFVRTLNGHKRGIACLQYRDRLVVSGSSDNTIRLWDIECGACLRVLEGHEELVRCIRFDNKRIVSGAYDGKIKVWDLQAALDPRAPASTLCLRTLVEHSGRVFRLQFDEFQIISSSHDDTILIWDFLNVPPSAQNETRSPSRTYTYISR

Key:
[1] = target: Small ribonucleoprotein peptide A (SNRPA) (human (endogenous in PANC-1)) (UniProt P09012); experiment: co-IP; cell lysates of PANC-1 cells incubated with SNRPA antibodies, blotted for BTRC and FBXW11; also in PANC-1 GR and PANC-1 WT cells transfected with sh-cNEK6, OE-cNEK6, or wild-type or mutant cNEK6
[2] = target: FLAG-tagged full-length SNRPA (UniProt P09012); experiment: co-IP; co-transfection of Myc-tagged BTRC and FLAG-tagged SNRPA (full length or truncations of one partner)

binding [1] | binding [2] | Substance
binds |  | BTRC, ubiquitin E3 ligase (from UniProt Q9Y297 1-605)
no binding |  | FBXW11, E3 ligase (from UniProt Q9UKB1 1-542)
 | binds | Myc-tagged full-length BTRC (from UniProt Q9Y297 1-605)
